# Source: article PMC5513735
# No constants are given. Whether binding was seen depends on the method and setting. Binding can be weak; no strength is given.
# Molecular target: T1, hypothetical protein SP_1876 (Streptococcus pneumoniae) (UniProt Q97NX5)
# T1 sequence: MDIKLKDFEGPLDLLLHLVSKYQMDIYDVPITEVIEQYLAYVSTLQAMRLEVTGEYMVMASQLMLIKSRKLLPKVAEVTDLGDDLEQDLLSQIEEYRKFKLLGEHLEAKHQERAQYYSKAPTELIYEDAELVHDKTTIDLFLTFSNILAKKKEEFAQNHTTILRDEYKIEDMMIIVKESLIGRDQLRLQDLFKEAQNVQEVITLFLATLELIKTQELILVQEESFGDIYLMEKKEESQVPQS
# Experiment: two-hybrid; yeast two-hybrid screens of S. pneumoniae ORFs: Gal4-based (individual baits mated with a pooled prey library, selection on SD -Leu -Trp -His with 0.1 mM 3-AT, 30°C) and LexA-based (hypothetical-protein BD clones against an AD array, two-phased pooled mating); which system found a given pair is not given
substance,measurement,value
"SP_1247, Chromosome segregation protein (from UniProt A0A0H2UQ93)",binding,binds
